Experimental data as given in the supplement of paper PMC8732350.
Where a name gives a salt, the structure may show the parent alone. ± gives the standard deviation of the averaged measurements. The list shows a part of the results. Repeats in this data set agree poorly, so a single value says little.

tested on: A549; assay: surface PD-L1 immunofluorescence intensity relative to IFN-gamma-only control (ratio); higher = more PD-L1 expression; conditions: 10 µM; exposure time 24 h; IFN-gamma 100 ng/mL

Row | SMILES | surface PD-L1 immunofluorescence intensity
1 | O=C1CC2(CCCC2)CC(=O)N1CCCCN1CCN(c2ncccn2)CC1 [Buspirone hydrochloride] | 1 ± 0.025
2 | CC[C@H]1OC(=O)[C@H](C)[C@@H](O[C@H]2C[C@@](C)(OC)[C@@H](O)[C@H](C)O2)[C@H](C)[C@@H](O[C@@H]2O[C@H](C)C[C@H](N(C)C)[C@H]2O)[C@](C)(O)C[C@@H](C)[C@@H]2N[C@@H](COCCOC)O[C@H]([C@H]2C)[C@]1(C)O [Dirithromycin] | 0.953
3 | Cc1cc(C)c(/C=C2\C(=O)Nc3ccccc32)[nH]1 | 0.978
4 | O=C(NOC[C@H](O)CO)c1ccc(F)c(F)c1Nc1ccc(I)cc1F | 0.956
5 | CC(C)c1cc(-c2ccc(F)c3ccccc23)nc(N)n1 | 1.08
6 | Cc1c(F)cc(C(=O)NC2CC2)cc1-c1ccc(C(=O)NCC(C)(C)C)cn1 [Losmapimod] | 0.947
7 | CNC(C)C1CCC(N)C(OC2C(N)CC(N)C(OC3OCC(C)(O)C(NC)C3O)C2O)O1 (configuration not stated) [Gentamycin sulfate (Gentacycol)] | 0.953
8 | Nc1nc(NCCc2ccc(O)cc2)nc2nc(-c3ccco3)nn12 | 1.12
9 | c1ccc(C(NCc2cccnc2)(c2ccccc2)c2ccccc2)cc1 | 1.04
10 | Cc1cccc(C#Cc2ccccc2)n1 [MPEP hydrochloride] | 0.995
11 | N[C@H](C(=O)O)c1cc(O)cc(O)c1 | 1.03
12 | COC(=O)C1=C(C)NC(C)=C(C(=O)OCCSc2ccccc2)C1C (configuration not stated) | 1.01
13 | C[C@H](O)C(=O)Nc1c(I)c(C(=O)NC(CO)CO)c(I)c(C(=O)NC(CO)CO)c1I [Iopamidol] | 1.01
14 | O=c1cc[nH]c(=S)[nH]1 [2-Thiouracil] | 1.01
15 | CC(C)CC(=O)N[C@H](C(=O)N[C@H](C(=O)N[C@@H](CC(C)C)[C@@H](O)CC(=O)N[C@@H](C)C(=O)N[C@@H](CC(C)C)[C@@H](O)CC(=O)O)C(C)C)C(C)C [Pepstatin A] | 0.943 ± 0.041
16 | Cc1ccc(Cl)c(Nc2ccccc2C(=O)O)c1Cl [Meclofenamic acid sodium salt monohydrate] | 0.9
17 | C=C1/C(=C\C=C2/CCC[C@]3(C)[C@@H]([C@H](C)/C=C/[C@@H](O)C4CC4)CC[C@@H]23)C[C@@H](O)C[C@@H]1O [Calcipotriol] | 1.04
18 | C=C1/C(=C\C=C2/CCC[C@]3(C)[C@@H]([C@H](C)/C=C/[C@@H](O)C4CC4)CC[C@@H]23)C[C@@H](O)C[C@@H]1O [Calcipotriene] | 1.01
19 | O=C(NCCO[N+](=O)[O-])c1cccnc1 [Nicorandil] | 0.947 ± 0.059
20 | CN(C)CCOc1ccc(/C(=C(/CCCl)c2ccccc2)c2ccccc2)cc1 [Toremifene] | 1.05
21 | CC(C(=O)O)c1ccc(N2Cc3ccccc3C2=O)cc1 (configuration not stated) [Indoprofen] | 0.997
22 | Cc1cc(Nc2ncnc3ccc(-c4ccc(CNCCS(C)(=O)=O)o4)cc23)ccc1Oc1ccn2ncnc2c1 [HER2 Inhibitor 1] | 1.11
23 | CC1=Nc2ccc(Cl)cc2S(=O)(=O)N1 [Diazoxide] | 0.87 ± 0.13
24 | Cc1cc(/C(=C/Nc2ccc(Cl)cc2)C(=O)Nc2ccc(Cl)cc2)on1 | 1.01

Three entries picked at random from the list so far, as already listed:
Row | SMILES | surface PD-L1 immunofluorescence intensity
17 | C=C1/C(=C\C=C2/CCC[C@]3(C)[C@@H]([C@H](C)/C=C/[C@@H](O)C4CC4)CC[C@@H]23)C[C@@H](O)C[C@@H]1O [Calcipotriol] | 1.04
13 | C[C@H](O)C(=O)Nc1c(I)c(C(=O)NC(CO)CO)c(I)c(C(=O)NC(CO)CO)c1I [Iopamidol] | 1.01
2 | CC[C@H]1OC(=O)[C@H](C)[C@@H](O[C@H]2C[C@@](C)(OC)[C@@H](O)[C@H](C)O2)[C@H](C)[C@@H](O[C@@H]2O[C@H](C)C[C@H](N(C)C)[C@H]2O)[C@](C)(O)C[C@@H](C)[C@@H]2N[C@@H](COCCOC)O[C@H]([C@H]2C)[C@]1(C)O [Dirithromycin] | 0.953

Continued:

Row | SMILES | surface PD-L1 immunofluorescence intensity
25 | CCCC(CCC)C(=O)NO [Valproic acid hydroxamate] | 0.921
26 | C[C@H]1C[C@H]2[C@@H]3CCC4=CC(=O)C=C[C@]4(C)[C@@]3(F)[C@@H](O)C[C@]2(C)[C@@]1(O)C(=O)CO [Betamethasone] | 0.8
27 | CNC(=O)[C@H](Cc1c[nH]c2ccccc12)NC(=O)[C@@H](CC(=O)NO)CC(C)C | 1
28 | COc1cc2nccc(Oc3ccc(NC(=O)C4(C(=O)Nc5ccc(F)cc5)CC4)cc3)c2cc1OC [XL-184 free base (Cabozantinib)] | 0.995
29 | O=C(O)/C=C/c1ccc(Cn2ccnc2)cc1 [Ozagrel hydrochloride] | 1.06
30 | CCCc1nc(C)c2c(=O)nc(-c3cc(S(=O)(=O)N4CCN(CC)CC4)ccc3OCC)[nH]n12 [Vardenafil] | 1.08
31 | CCCc1nc(C)c2c(=O)nc(-c3cc(S(=O)(=O)N4CCN(CC)CC4)ccc3OCC)[nH]n12 [Vardenafil Hydrochloride Trihydrate (Vivanza)] | 1.01
32 | CNC(=O)c1cc(COc2nnc(Nc3ccc(Cl)cc3)c3ccoc23)ccn1 [Telatinib (BAY 57-9352)] | 1.01
33 | O=c1c(-c2ccc(O)cc2)coc2c([C@@H]3O[C@H](CO)[C@@H](O)[C@H](O)[C@H]3O)c(O)ccc12 [Puerarin (Kakonein)] | 1.09
34 | CCn1nc(C(=O)O)c(=O)c2cc3c(cc21)OCO3 [Cinoxacin] | 0.941
35 | CCCCN1CCC(CCC(=O)c2cc(Cl)c(N)cc2OC)CC1 | 1.05
36 | COCCOC(=O)C1=C(C)NC(C)=C(C(=O)OC/C=C/c2ccccc2)C1c1cccc([N+](=O)[O-])c1 (configuration not stated) [Cilnidipine] | 1.04
37 | CCOc1nc2cccc(C(=O)O)c2n1Cc1ccc(-c2ccccc2-c2noc(=O)[nH]2)cc1 [Azilsartan (TAK-536)] | 0.957
38 | O=C1c2ccccc2C(Cc2ccnc(F)c2)(Cc2ccnc(F)c2)c2ccccc21 | 0.867
39 | Cc1cc([C@@H](C)Nc2ccccc2C(=O)O)c2nc(N3CCOCC3)cc(=O)n2c1 | 1.03
40 | CCCCNc1ccc(C(=O)OCCOCCOCCOCCOCCOCCOCCOCCOCCOC)cc1 [Benzonatate] | 0.903
41 | Cc1cnc(NC(=O)C2=C(O)c3ccccc3S(=O)(=O)N2C)s1 [Meloxicam] | 0.959
42 | CC(C)NCC(O)COc1ccc(CC(N)=O)cc1 (racemic) [(RS)-Atenolol] | 0.982
43 | O=C(O)CCCc1ccccc1 [sodium 4-Phenylbutyrate] | 0.94
44 | COc1cc(O)cc(O)c1C(=O)/C=C/c1ccccc1 [Cardamonin] | 1.12
45 | N=C(N)SCCc1c[nH]cn1 [Imetit dihydrobromide] | 1.15
46 | C[C@@H]1C[C@H]2[C@@H]3CCC4=CC(=O)C=C[C@]4(C)[C@@]3(F)[C@@H](O)C[C@]2(C)[C@@]1(O)C(=O)CO [Dexamethasone] | 0.805 ± 0.018
47 | c1ccc(CN2CCC3(CCc4ccccc43)CC2)cc1 [L-693,403 maleate] | 1.04
